Measurements taken from patent US20260274875A1, “[…] COMPOUNDS, PREPARATION METHOD AND USE THEREOF” (HC SYNTHETIC PHARMACEUTICAL CO., LTD., priority 2022, published 2026).

Tested on: histamine-induced asthma in guinea pigs
Test: Antiasthmatic effect on histamine-induced asthma in guinea pigs
Type: in vivo, guinea pig
Details: 60 min after 1 mg/kg oral gavage; histamine hydrochloride spray; no asthma within 8 min counted as 8 min; X ± s, n = 5
Method: The time point at which the guinea pigs developed asthma was recorded. The time of convulsion and fall was taken as the latency period. Guinea pigs with a latency period exceeding 180 seconds were not selected. […] The guinea pigs were administered by oral gavage at a dose of 2 mL/kg·bw. Sixty minutes after the administration, the guinea pigs were placed in bell jars, and histamine hydrochloride solution was sprayed under the same conditions as in the previous selection. The latency period for the onset of asthma was recorded. […] The results were processed statistically.

Which “Post-administration latency period” value does the source give for `Clc1ccc2c(c1)CCc1cccnc1C2=C1CCNCC1` [Desloratadine, reference compound] here?
The value was 268.33 ± 57.12 s.
